Record: PubChem BioAssay AID1224830 (NIAID, 2016)
The deposit covers about 18,000 reagents; shown is a part drawn at random. Of all reagents, about 2,900 (16%) are marked active. 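Calls are made per well; low scores hint the gene aids the LPS response, high scores that it dampens it.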 Entries without a mark were called inactive. Repeated entries: four replicate wells of each siRNA pool.

Assay: 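Genes whose knock-down alters the TNF-alpha reporter response to LPS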 (primary screen)
Cell system: human THP-1 monocytic leukaemia cells, TNF dual-luciferase reporter clone, PMA-differentiated to macrophage-like cells
Knock-down reagent: siRNA pool against human genes, 50 nM
Duration: LPS for 4 h, given about 3 days after siRNA transfection
Treatment: bacterial LPS (TLR4 ligand), 10 ng/ml
Detection: 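Ratio of firefly to renilla light, scaled to the plate median and expressed as a robust z-score per replicate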
Scale: TNF reporter robust z-score: higher = stronger TNF reporter response to LPS
Rule for the call: 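Each well counts as active if its z-score is over 2.8 or under -1.5; controls are left without a call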

target | PubChem SID | TNF reporter robust z-score
NPTX1 | SID315450300 | -0.51
NPTX1 | SID315450300 | 0.82
NPTX1 | SID315450300 | 0.12
NPTX1 | SID315450300 | 0.43
XDH | SID315452158 | 0.44
XDH | SID315452158 | -0.17
XDH | SID315452158 | 0.42
XDH | SID315452158 | 0.83
CTAG1A | SID315463391 | -0.72
CTAG1A | SID315463391 | -0.62
CTAG1A | SID315463391 | -0.43
CTAG1A | SID315463391 | 0.3
TMLHE | SID315457506 | -1.11
TMLHE | SID315457506 | -0.14
TMLHE | SID315457506 | -0.93
TMLHE | SID315457506 | 0.03
CTBP2 | SID315448161 | 0.13
CTBP2 | SID315448161 | 0.38
CTBP2 | SID315448161 | 0.99
CTBP2 | SID315448161 | 0.84
ZNF560 | SID315462337 | 1.11
ZNF560 | SID315462337 | 1.03
ZNF560 | SID315462337 | -0.19
ZNF560 | SID315462337 | -0.56
PDE6A | SID315450478 | -1.77 (active)
PDE6A | SID315450478 | -1.43
PDE6A | SID315450478 | -1.08
PDE6A | SID315450478 | -1.22
TMIGD2 | SID315461694 | -0.46
TMIGD2 | SID315461694 | -0.52
TMIGD2 | SID315461694 | -0.66
TMIGD2 | SID315461694 | -0.64
TNNI3K | SID315456456 | -1.72 (active)
TNNI3K | SID315456456 | 0.6
TNNI3K | SID315456456 | -0.08
TNNI3K | SID315456456 | 1.21

Additional entries follow:
target | PubChem SID | TNF reporter robust z-score
RB1 | SID315451064 | -0.16
RB1 | SID315451064 | 1.34
RB1 | SID315451064 | 0.16
RB1 | SID315451064 | 1.08
BCO2 | SID315460107 | -0.21
BCO2 | SID315460107 | 0.54
BCO2 | SID315460107 | 0.71
BCO2 | SID315460107 | 0.57
GPRC5A | SID315453003 | -0.44
GPRC5A | SID315453003 | 0.89
GPRC5A | SID315453003 | 0.13
GPRC5A | SID315453003 | -0.59
H1-1 | SID315449143 | 0.72
H1-1 | SID315449143 | 0.56
H1-1 | SID315449143 | 0.31
H1-1 | SID315449143 | 0.86
HSD17B12 | SID315456508 | -0.6
HSD17B12 | SID315456508 | 0.91
HSD17B12 | SID315456508 | -0.02
HSD17B12 | SID315456508 | 0.79
SPIN1 | SID315454462 | 1.25
SPIN1 | SID315454462 | 2.17
SPIN1 | SID315454462 | 0.98
SPIN1 | SID315454462 | 2.56
PCDHGB6 | SID315457987 | -0.11
PCDHGB6 | SID315457987 | 0.02
PCDHGB6 | SID315457987 | 0.58
PCDHGB6 | SID315457987 | 0.68
GPX8 | SID315465003 | -0.7
GPX8 | SID315465003 | -0.45
GPX8 | SID315465003 | -0.55
GPX8 | SID315465003 | -0.79
AGL | SID315447241 | 0.18
AGL | SID315447241 | 1.5
AGL | SID315447241 | -1.17
AGL | SID315447241 | 1.52
OR2T3 | SID315464154 | -0.37
OR2T3 | SID315464154 | -0.74
OR2T3 | SID315464154 | -0.48
OR2T3 | SID315464154 | -0.11
